Source: paper PMC10648996
These are yes or no findings as the source states them, for the method shown. Binding seen in cells or lysates may run through a third protein. Some binding calls cover weakened binding; strength is not graded here.

Protein sequences, listed by entry. Tags and fused reporters are not part of them. Lines headed by an entry give the natural chain unless they say otherwise; changes in a name come on top. Chains listed by the source or under a name are the forms on record and can include a tag or linker.
UniProt Q08775: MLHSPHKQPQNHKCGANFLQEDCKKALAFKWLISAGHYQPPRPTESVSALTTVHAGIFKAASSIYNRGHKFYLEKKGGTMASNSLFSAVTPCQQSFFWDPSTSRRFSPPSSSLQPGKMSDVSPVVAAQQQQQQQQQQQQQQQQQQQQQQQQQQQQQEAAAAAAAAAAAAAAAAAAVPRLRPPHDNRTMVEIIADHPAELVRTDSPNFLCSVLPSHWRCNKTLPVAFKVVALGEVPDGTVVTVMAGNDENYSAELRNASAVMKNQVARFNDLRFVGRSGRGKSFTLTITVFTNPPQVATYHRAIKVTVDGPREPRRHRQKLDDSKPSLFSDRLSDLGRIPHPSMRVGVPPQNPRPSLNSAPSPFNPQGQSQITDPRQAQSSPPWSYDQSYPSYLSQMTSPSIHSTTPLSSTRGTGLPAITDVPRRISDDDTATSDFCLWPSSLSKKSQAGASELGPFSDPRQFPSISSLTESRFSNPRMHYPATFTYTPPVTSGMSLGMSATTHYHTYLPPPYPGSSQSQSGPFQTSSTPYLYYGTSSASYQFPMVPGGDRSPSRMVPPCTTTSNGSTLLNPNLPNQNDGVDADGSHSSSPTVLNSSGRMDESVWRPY
HA-tagged full-length Cyclophilin E (CypE, amino acids 1–314) (Q9UNP9-3, form named): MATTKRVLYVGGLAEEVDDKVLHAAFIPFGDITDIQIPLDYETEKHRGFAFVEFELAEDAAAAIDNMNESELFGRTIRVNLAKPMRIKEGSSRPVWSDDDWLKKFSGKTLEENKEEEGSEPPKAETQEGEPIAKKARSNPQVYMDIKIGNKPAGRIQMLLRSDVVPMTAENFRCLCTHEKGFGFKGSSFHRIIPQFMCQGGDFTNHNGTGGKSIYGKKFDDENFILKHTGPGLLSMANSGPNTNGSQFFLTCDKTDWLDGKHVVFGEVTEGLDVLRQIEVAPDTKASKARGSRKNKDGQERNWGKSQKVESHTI
Myc-CypE 137–314 (Q9UNP9-3, form named): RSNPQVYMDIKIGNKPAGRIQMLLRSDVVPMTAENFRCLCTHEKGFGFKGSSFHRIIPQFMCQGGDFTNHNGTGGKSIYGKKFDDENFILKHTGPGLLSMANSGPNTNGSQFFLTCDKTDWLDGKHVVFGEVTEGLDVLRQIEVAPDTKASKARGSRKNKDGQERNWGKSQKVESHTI

Assays:
GST-Runx2 = GST-Runx2 (UniProt Q08775); test: pull-down; Glutathione-Sepharose beads carrying GST, GST-Runx2 or GST-CypE incubated with whole-cell lysate of transfected HEK 293 cells at 4 °C overnight; washed with 20 mM HEPES pH 7.4, 120 mM NaCl, 10% glycerol, 2 mM EDTA; immunoblot; only the target purified
GST-CypE = GST-CypE (UniProt Q9UNP9); test: as above
[1] = molecular target: HA-tagged full-length Cyclophilin E (CypE, amino acids 1–314) (UniProt Q9UNP9); test: co-IP; HEK 293 cells co-transfected for 48 h; whole-cell lysate (25 mM HEPES pH 7.4, 150 mM NaCl, 1% NP-40, 0.25% Na-Doc) incubated with HA or Myc antibody overnight, Protein A Sepharose CL-4B 1 h at 4 °C; immunoblot

| Substance | binding (GST-Runx2) | binding (GST-CypE) | binding [1] |
| --- | --- | --- | --- |
| HA-tagged full-length Cyclophilin E (CypE, amino acids 1–314) (from UniProt Q9UNP9-3 1-314) | binds | – | – |
| Myc-Runx2 Runt homology domain (R) (from UniProt Q08775 187-315) (domain or fragment) | – | binds | binds |
| Myc-tagged Runx2 (full length) (from UniProt Q08775 1-607) | – | binds | binds |

Other lines, results leading:

| binding (GST-Runx2) | binding (GST-CypE) | binding [1] | Substance |
| --- | --- | --- | --- |
| binds | – | – | Myc-CypE 137–314 (from UniProt Q9UNP9-3 137-314) (domain or fragment) |
| binds | – | – | Myc-CypE (from UniProt Q9UNP9-3 1-314) |
